{"source": "paper PMC7819943", "about": "“Rice protein-binding microarrays: a tool to detect cis-acting elements near promoter regions in rice”", "note": "The list shows a part of the results.", "data": [{"target": "T1, OsSMF1 (Oryza sativa, UniProt Q6ZLB0 1-436)", "T1 sequence": "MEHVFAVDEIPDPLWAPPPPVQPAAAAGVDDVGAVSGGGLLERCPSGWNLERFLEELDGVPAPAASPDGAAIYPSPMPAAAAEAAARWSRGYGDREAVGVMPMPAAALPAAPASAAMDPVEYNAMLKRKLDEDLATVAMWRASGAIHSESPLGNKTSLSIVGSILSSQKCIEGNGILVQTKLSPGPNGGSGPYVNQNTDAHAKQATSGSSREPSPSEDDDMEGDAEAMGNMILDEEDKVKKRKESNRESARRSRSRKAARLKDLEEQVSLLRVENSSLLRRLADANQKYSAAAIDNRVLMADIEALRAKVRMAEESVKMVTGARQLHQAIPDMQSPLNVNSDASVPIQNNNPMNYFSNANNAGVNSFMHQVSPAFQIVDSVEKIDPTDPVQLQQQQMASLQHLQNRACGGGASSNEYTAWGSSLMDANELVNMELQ", "experiment": "protein-binding microarray (RPBM); PBS, 2% BSA, 51.3 ng/ul salmon testes DNA, 50 uM zinc acetate, 200 nM TF, 25 C, 1 h; high values mean tight binding", "details": "protein: recombinant; tags: N-terminal polyhistidine and DsRed monomer fusion (pET32a); chain copies: 2; label: CyDye5-dUTP incorporated in the synthesized complementary strand; 3' TTTTT single-stranded linker to array surface; dsDNA, one strand shown", "outline": "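Transcription factors, each fused N-terminally to a polyhistidine tag and DsRed, were expressed in E. coli BL21-CodonPlus and purified on Ni–NTA. A custom Agilent array was made double-stranded by primer extension with Cy5-dUTP and blocked with 2% BSA. It was incubated with 200 nM protein in PBS, 2% BSA, salmon testes DNA and 50 µM zinc acetate at 25 °C for 1 h, then washed. The binding signal is per-feature fluorescence intensity (arbitrary units) read on an Axon 4000B scanner.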", "values": [{"sequence": "GCTAGGACATGATGTGATCTGGACAGGAAAACGGAAAACGCGGAGTCACCTAGTGCAG", "binding signal": "3520 fluorescence intensity (a.u.)"}, {"sequence": "GGCTTAAAAGATTCGTTTCATAATTTACACGCAAACTGTACGGAGTCACCTAGTGCAG", "binding signal": "3890 fluorescence intensity (a.u.)"}, {"sequence": "GAAATTGACGCTACAACGACTAACAAAATGCCGAAGCGTCCGGAGTCACCTAGTGCAG", "binding signal": "3620 fluorescence intensity (a.u.)"}, {"sequence": "CTGAAATTCGAAATTTAAAATAAGGAATATTAGAAGTAGACGGAGTCACCTAGTGCAG", "binding signal": "26300 fluorescence intensity (a.u.)"}, {"sequence": "CCACGGCACCTTCTCGACCCTGACGCGTGGACCCTCTAGGCGGAGTCACCTAGTGCAG", "binding signal": "6060 fluorescence intensity (a.u.)"}, {"sequence": "AAGGCGCAAAGGGGAAGAGGGGAGCACGACCACCCTCCTCCGGAGTCACCTAGTGCAG", "binding signal": "34200 fluorescence intensity (a.u.)"}, {"sequence": "TTTAAAAGGTCCCCGCTTCAGCTTATTATCAGGTATATACCGGAGTCACCTAGTGCAG", "binding signal": "23100 fluorescence intensity (a.u.)"}, {"sequence": "GAGAAATATGGGCCACTGACGTGTGGGCCCCACCTAATCACGGAGTCACCTAGTGCAG", "binding signal": "5610 fluorescence intensity (a.u.)"}, {"sequence": "CCGGCGGCAACACGTGGACCCTCGCGCGCTTGGGACTTGCCGGAGTCACCTAGTGCAG", "binding signal": "6140 fluorescence intensity (a.u.)"}, {"sequence": "CGGTTATAGTGTGAGTGTGTGCTTGTGTCATGGAATGTGACGGAGTCACCTAGTGCAG", "binding signal": "4250 fluorescence intensity (a.u.)"}, {"sequence": "ACATCTTCGTCGGCGGCCGCGTCGGCAGCGACTCTCACCTCGGAGTCACCTAGTGCAG", "binding signal": "4850 fluorescence intensity (a.u.)"}, {"sequence": "TTCGCGTTACGTAGCGATTATGTCGTGTATAGCTGTGTGTCGGAGTCACCTAGTGCAG", "binding signal": "3360 fluorescence intensity (a.u.)"}, {"sequence": "CGACAACCATGCACGGCCTGGATGAGGTACCAGATACCTCCGGAGTCACCTAGTGCAG", "binding signal": "29100 fluorescence intensity (a.u.)"}, {"sequence": "ATCTAAAACAATGATGACGCGGAAAGCTTGTGAAGAAATCCGGAGTCACCTAGTGCAG", "binding signal": "9090 fluorescence intensity (a.u.)"}, {"sequence": "TTCTGGTTTTAGCCCATGGAAAGCAAACTAGAGTTTGTCCCGGAGTCACCTAGTGCAG", "binding signal": "4410 fluorescence intensity (a.u.)"}, {"sequence": "GAGATATGCCATCAGTATCTCAATGACATGTAGGACCCACCGGAGTCACCTAGTGCAG", "binding signal": "3550 fluorescence intensity (a.u.)"}, {"sequence": "GTGTCGCCGGACCTGCTCGCCGCAGAGCTACCGGCCAGAGCGGAGTCACCTAGTGCAG", "binding signal": "32900 fluorescence intensity (a.u.)"}, {"sequence": "ATCTGCAATCCAACGGTCAGGTGGAATAGAGGTGATGTGGCGGAGTCACCTAGTGCAG", "binding signal": "5160 fluorescence intensity (a.u.)"}, {"sequence": "TAGCCGCCACGCGGCGAATCCTCTCCTCCCCTGCGCGGCGCGGAGTCACCTAGTGCAG", "binding signal": "4890 fluorescence intensity (a.u.)"}, {"sequence": "GTCGTGGGCGGGAGGTGGTGGTGGTGGTGCTGCTGCATTGCGGAGTCACCTAGTGCAG", "binding signal": "3640 fluorescence intensity (a.u.)"}, {"sequence": "TTGCCCTTGCGATGACGAAAAGCTCTTCGGTGGCAACTTGCGGAGTCACCTAGTGCAG", "binding signal": "3970 fluorescence intensity (a.u.)"}, {"sequence": "GCCACGTCGTGTCCGTGTGACATGCCACATCAGCACCACACGGAGTCACCTAGTGCAG", "binding signal": "28400 fluorescence intensity (a.u.)"}, {"sequence": "TAATCGTGGTCTTGCCTACGTGGCATACTACGTGGGCGATCGGAGTCACCTAGTGCAG", "binding signal": "20500 fluorescence intensity (a.u.)"}, {"sequence": "CCTCGTAAACCCTGCTTGATGAGTTGGCACTGGCAGGTCTCGGAGTCACCTAGTGCAG", "binding signal": "8280 fluorescence intensity (a.u.)"}, {"sequence": "CTGAATATGCCCATAGTCTATCATTATAAAGCCTATAATTCGGAGTCACCTAGTGCAG", "binding signal": "19100 fluorescence intensity (a.u.)"}, {"sequence": "CGGGAGCAGAGGCGGTGACGCCGCCGGCGAGCAGCGGAGGCGGAGTCACCTAGTGCAG", "binding signal": "3380 fluorescence intensity (a.u.)"}, {"sequence": "GCTATATATCTGTAATACACGTAACGTATATTGTTCTCGCCGGAGTCACCTAGTGCAG", "binding signal": "4010 fluorescence intensity (a.u.)"}, {"sequence": "GTGAAACACGCTTGCATGCATGTGCGCTGGCCACACTCAGCGGAGTCACCTAGTGCAG", "binding signal": "3690 fluorescence intensity (a.u.)"}, {"sequence": "GCCCACTTGCAGTGACACGAACGGACTGCCAGCTCAGCTACGGAGTCACCTAGTGCAG", "binding signal": "12200 fluorescence intensity (a.u.)"}, {"sequence": "AGCCCGCTCGTCCTCCGCTCACCGCCGACGCGGACCAGCACGGAGTCACCTAGTGCAG", "binding signal": "3620 fluorescence intensity (a.u.)"}, {"sequence": "ATGGTTGCCATCAGAGATATCCTTGTTGTCACTGCACATGCGGAGTCACCTAGTGCAG", "binding signal": "6050 fluorescence intensity (a.u.)"}, {"sequence": "CATTTGTCATGTAGTTAGATGCTGACGTTTAGGCTACAGTCGGAGTCACCTAGTGCAG", "binding signal": "3340 fluorescence intensity (a.u.)"}, {"sequence": "ATGACTTTCTCTTTGTTGCCGCGTGGTAGGAGCAATCGCACGGAGTCACCTAGTGCAG", "binding signal": "3800 fluorescence intensity (a.u.)"}, {"sequence": "CTTCGTCTTCCTCCCTCCTCGTCACGTCAGGCTGCCAACGCGGAGTCACCTAGTGCAG", "binding signal": "6080 fluorescence intensity (a.u.)"}, {"sequence": "GCTGCCCCTCGTCACCGCCCGTCGCGGTTGCCCCTCATCGCGGAGTCACCTAGTGCAG", "binding signal": "3980 fluorescence intensity (a.u.)"}, {"sequence": "ATGCTTCGTAGTGAACTTATCCTAAATAGCAGCAGCTTGTCGGAGTCACCTAGTGCAG", "binding signal": "38000 fluorescence intensity (a.u.)"}, {"sequence": "CATGTCGTACGCCATCTCTCATCGCTGCGTCCAATTAAATCGGAGTCACCTAGTGCAG", "binding signal": "3650 fluorescence intensity (a.u.)"}, {"sequence": "TTCCGGCGAAACGGGCATGACGTCATCCAGCATGTGGGACCGGAGTCACCTAGTGCAG", "binding signal": "13000 fluorescence intensity (a.u.)"}, {"sequence": "GTGCCAGCTTGAGAGCGCTTTTAGGATGCCACATGTCAGCCGGAGTCACCTAGTGCAG", "binding signal": "5270 fluorescence intensity (a.u.)"}, {"sequence": "TTTCGAAACCCTAAACCGTATCAAGCAAGATCGATGTGCACGGAGTCACCTAGTGCAG", "binding signal": "24000 fluorescence intensity (a.u.)"}, {"sequence": "CGACGGGACGGCGGCGCCCTCGTCACTCCACATCTGACTCCGGAGTCACCTAGTGCAG", "binding signal": "3460 fluorescence intensity (a.u.)"}, {"sequence": "TTTCCGCTATCGCGGTGCGCGCGGAAGGCCCCGCTGCGGCCGGAGTCACCTAGTGCAG", "binding signal": "39200 fluorescence intensity (a.u.)"}]}]}
